In the supplement of paper PMC12067093, “Discovery and optimisation of a covalent ligand for TRIM25 and its application to targeted protein ubiquitination” (Chemical Science, 2025):
Some of the results follow.

Sequences of proteins named here, by UniProt entry; tags and fusion partners are left off. A change or cut given only in a name is not applied to a line headed by its entry.
UniProt Q15785: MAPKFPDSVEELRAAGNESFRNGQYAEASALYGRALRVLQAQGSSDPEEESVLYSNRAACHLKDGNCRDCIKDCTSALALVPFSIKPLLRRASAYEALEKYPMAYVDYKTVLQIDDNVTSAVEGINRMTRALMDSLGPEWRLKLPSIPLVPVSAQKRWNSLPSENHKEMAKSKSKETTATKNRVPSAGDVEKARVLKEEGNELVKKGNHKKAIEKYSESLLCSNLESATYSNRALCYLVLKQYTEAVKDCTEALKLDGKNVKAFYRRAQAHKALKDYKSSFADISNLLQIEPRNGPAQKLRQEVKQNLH
UniProt Q9Y3Q3: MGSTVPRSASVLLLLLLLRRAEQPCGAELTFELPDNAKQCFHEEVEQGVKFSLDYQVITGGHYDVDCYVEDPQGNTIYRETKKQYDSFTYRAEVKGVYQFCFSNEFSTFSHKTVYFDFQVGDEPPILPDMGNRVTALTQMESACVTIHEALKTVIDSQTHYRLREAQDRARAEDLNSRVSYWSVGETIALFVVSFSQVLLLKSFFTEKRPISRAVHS
UniProt P11387: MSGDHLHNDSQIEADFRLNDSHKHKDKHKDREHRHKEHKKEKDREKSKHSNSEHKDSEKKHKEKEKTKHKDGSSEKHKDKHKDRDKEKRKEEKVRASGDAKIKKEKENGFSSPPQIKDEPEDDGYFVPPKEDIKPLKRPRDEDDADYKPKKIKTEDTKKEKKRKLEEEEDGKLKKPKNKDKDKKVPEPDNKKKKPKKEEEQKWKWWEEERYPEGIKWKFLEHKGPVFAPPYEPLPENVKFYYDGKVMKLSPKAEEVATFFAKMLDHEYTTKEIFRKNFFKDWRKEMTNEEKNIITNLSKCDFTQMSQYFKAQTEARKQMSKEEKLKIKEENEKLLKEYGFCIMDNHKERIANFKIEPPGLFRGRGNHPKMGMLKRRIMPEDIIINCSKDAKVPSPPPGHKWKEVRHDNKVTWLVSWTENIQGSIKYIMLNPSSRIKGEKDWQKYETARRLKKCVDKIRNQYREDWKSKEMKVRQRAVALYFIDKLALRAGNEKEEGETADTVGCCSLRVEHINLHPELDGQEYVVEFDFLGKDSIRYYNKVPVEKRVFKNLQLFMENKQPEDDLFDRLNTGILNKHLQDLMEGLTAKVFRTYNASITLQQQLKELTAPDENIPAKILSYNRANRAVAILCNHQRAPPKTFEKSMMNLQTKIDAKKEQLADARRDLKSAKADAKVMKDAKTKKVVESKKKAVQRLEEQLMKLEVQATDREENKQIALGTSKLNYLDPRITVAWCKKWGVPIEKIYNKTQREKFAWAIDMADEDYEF
UniProt P11388: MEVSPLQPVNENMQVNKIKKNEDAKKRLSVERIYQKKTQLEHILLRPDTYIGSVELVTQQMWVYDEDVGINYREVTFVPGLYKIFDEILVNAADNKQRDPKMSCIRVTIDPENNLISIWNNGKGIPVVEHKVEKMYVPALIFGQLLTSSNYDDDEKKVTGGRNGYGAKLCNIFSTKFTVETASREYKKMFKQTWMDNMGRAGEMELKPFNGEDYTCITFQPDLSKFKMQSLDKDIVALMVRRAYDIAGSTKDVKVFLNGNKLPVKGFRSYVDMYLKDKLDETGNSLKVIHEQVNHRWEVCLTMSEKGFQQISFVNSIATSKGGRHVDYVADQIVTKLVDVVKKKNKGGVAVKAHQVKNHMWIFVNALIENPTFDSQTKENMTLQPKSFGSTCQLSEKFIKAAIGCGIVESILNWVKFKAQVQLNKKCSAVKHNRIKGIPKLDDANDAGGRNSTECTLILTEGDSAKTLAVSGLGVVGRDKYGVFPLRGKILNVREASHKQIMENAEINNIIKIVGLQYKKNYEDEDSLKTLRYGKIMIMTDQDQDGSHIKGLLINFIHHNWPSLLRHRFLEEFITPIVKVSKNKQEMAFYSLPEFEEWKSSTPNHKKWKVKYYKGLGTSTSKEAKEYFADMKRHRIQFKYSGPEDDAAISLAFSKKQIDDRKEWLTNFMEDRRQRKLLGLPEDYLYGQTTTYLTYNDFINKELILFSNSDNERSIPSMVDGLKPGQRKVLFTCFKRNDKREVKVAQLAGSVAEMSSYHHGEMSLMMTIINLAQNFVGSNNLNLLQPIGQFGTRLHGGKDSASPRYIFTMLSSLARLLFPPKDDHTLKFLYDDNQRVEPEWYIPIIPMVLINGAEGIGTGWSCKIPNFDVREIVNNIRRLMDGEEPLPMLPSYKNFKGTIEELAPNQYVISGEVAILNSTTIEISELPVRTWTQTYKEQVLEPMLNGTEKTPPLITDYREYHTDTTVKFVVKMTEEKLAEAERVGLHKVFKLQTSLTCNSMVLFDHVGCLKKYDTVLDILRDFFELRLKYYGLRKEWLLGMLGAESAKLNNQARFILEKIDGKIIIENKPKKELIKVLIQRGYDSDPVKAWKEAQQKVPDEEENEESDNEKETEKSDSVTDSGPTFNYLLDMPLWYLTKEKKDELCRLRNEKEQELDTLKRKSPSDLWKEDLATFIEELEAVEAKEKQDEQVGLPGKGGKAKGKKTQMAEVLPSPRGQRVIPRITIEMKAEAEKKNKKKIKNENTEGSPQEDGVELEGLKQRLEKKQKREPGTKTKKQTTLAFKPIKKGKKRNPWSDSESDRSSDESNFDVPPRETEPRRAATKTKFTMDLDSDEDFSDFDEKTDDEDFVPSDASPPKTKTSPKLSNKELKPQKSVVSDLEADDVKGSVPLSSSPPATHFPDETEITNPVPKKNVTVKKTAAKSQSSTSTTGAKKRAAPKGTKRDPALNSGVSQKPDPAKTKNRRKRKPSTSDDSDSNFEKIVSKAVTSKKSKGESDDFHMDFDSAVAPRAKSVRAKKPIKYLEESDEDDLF
UniProt Q9NWD8: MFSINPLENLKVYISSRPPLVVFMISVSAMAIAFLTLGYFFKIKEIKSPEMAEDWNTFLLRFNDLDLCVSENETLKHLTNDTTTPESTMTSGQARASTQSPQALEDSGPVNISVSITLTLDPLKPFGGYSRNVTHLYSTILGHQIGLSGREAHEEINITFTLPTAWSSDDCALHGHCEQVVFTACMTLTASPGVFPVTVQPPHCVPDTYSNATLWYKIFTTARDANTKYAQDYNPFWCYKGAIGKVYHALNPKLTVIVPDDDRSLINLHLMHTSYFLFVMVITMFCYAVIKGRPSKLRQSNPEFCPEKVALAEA
UniProt Q96HA7: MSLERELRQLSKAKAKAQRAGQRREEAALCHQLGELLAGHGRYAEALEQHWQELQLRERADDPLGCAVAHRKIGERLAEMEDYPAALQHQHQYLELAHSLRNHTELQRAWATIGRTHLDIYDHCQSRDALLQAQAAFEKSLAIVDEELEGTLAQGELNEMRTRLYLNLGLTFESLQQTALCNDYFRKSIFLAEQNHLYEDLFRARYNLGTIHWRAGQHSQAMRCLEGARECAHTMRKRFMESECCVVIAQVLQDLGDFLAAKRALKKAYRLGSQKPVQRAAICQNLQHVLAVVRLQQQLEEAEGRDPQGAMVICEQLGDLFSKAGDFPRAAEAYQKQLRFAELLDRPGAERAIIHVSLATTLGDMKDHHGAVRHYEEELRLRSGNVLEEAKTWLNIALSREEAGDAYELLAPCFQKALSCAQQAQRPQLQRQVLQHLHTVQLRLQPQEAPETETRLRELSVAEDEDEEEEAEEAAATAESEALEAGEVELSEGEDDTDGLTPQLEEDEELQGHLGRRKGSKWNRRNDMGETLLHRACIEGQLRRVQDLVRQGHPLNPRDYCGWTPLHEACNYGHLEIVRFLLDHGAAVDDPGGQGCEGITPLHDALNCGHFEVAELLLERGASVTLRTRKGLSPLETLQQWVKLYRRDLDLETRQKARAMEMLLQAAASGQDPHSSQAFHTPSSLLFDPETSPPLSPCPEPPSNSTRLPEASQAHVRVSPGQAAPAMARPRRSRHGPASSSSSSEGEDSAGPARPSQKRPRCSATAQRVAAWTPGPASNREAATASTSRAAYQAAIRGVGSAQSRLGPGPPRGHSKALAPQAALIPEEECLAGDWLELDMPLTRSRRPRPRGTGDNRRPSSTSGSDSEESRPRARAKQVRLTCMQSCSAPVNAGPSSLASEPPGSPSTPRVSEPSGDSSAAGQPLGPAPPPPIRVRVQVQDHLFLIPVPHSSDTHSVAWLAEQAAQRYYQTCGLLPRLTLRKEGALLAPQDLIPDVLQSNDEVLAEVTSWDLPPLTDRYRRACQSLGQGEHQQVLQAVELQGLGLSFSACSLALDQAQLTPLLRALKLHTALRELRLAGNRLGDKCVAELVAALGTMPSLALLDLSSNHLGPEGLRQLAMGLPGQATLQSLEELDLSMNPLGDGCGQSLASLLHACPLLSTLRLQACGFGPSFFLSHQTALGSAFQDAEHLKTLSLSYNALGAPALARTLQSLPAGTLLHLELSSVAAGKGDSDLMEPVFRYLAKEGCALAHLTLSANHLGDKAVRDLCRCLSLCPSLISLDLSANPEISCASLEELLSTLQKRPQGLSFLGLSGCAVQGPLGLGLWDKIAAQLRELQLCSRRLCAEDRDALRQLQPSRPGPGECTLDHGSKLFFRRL
UniProt Q92973: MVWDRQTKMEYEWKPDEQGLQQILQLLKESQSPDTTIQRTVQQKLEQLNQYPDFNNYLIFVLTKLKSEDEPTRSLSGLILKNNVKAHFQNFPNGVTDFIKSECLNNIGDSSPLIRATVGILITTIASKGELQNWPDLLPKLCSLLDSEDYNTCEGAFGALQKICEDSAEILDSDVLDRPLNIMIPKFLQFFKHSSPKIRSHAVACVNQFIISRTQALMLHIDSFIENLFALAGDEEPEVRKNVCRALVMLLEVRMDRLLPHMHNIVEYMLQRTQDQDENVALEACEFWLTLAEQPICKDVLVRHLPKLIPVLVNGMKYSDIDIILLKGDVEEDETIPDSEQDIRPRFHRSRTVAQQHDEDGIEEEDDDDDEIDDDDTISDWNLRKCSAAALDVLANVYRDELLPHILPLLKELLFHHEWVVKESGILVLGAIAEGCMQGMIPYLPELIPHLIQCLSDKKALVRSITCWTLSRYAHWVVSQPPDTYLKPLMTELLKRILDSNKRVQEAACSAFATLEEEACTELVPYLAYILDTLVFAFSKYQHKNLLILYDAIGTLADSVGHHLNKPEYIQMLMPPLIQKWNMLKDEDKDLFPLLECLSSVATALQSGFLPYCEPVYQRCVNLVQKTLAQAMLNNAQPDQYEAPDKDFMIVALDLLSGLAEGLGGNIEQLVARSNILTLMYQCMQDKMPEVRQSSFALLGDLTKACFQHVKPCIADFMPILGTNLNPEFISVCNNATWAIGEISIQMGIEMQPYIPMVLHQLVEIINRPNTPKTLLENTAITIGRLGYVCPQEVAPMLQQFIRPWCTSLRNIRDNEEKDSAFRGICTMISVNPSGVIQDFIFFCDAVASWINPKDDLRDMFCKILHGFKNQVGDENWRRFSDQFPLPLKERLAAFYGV
UniProt Q9NS56: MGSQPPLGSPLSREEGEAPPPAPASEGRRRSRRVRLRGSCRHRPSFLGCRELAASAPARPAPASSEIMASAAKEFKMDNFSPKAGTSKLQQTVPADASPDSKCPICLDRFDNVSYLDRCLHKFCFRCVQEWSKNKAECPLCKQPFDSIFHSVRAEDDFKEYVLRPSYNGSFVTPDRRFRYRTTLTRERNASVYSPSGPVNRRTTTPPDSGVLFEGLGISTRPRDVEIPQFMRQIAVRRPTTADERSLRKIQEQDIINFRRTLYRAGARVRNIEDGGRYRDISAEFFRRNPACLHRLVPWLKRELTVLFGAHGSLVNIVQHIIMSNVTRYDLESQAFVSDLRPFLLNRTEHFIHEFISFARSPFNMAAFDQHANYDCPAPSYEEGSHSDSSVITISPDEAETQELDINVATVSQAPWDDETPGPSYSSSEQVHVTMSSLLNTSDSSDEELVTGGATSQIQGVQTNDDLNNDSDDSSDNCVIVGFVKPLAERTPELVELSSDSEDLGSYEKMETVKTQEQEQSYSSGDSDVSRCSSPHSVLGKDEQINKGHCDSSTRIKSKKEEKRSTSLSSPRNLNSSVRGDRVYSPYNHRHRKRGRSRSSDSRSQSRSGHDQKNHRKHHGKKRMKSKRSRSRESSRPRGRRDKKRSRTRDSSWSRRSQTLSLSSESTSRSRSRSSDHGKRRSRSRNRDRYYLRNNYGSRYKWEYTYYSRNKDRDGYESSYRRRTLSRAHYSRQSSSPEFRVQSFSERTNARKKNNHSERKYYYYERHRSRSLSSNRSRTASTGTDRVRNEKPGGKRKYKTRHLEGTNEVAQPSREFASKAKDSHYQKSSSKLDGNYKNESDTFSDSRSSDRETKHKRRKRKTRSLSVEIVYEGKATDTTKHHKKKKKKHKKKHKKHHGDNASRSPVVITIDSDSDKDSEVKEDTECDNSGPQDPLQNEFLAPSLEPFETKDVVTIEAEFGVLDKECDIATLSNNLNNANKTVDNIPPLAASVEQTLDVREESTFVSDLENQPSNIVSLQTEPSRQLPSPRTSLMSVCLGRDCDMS

The targets below were run with Cc1cc(ccc1-c1ccccc1)C(=O)N1CCCN(CC1)C(=O)CCl [compound 10] (assay: probe-labelled cysteine peptide fold change vs DMSO (competition) (log2 fold change); higher = less target engagement (more negative = stronger competition)). Conditions: 10 µM; THP-1; incubation time: 4 h.
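Also: competitive profiling in live THP-1 cells: cysteine peptides tagged with an iodoacetamide desthiobiotin (IA-DTB) probe, intensity after compound treatment relative to DMSO-treated cells.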

Target | probe-labelled cysteine peptide fold change
TOMM34_Q15785_74_DCTSALALVPFSIK (UniProt Q15785) | 0.111
TOP3B_O95985_819_HAASCHPMHR (UniProt O95985) | -0.00957
TMEM192_Q8IY95_266_RLLALTSSDLGCQPSR (UniProt Q8IY95) | -0.0328
TOMM40_O96008_76_TPGAATASASGAAEDGACGCLPNPGTFEECHRK (UniProt O96008) | -0.405
TNPO2_O14787_375_CSAAALDVLANVFR (UniProt O14787) | 0.208
TLR6_Q9Y2C9_672_EDIQICLHER (UniProt Q9Y2C9) | 0.00901
TMEM147_Q9BVK8_116_CIPLWVGAR (UniProt Q9BVK8) | -0.0315
TPI1_P60174_124_DCGATWVVLGHSER (UniProt P60174) | 0.109
TMED3_Q9Y3Q3_40_QCFHEEVEQGVK (UniProt Q9Y3Q3) | -0.103
TLR2_O60603_585_LSVSECHR (UniProt O60603) | -0.146
TLN1_Q9Y490_2408_MVAAATNNLCEAANAAVQGHASQEK (UniProt Q9Y490) | 0.227
TOP1_P11387_300_CDFTQMSQYFK (UniProt P11387) | 0.0952
TMLHE_Q9NVH6_103_SLDTASVDLCIKPK (UniProt Q9NVH6) | -0.0966
TNKS1BP1_Q9C0C2_1296_NMAPGAVCSPGESK (UniProt Q9C0C2) | -0.618
TOP2A_P11388_170_LCNIFSTK (UniProt P11388) | -0.173
TPM3_P06753-2_233_EEHLCTQR (UniProt P06753) | 0.027
TOMM34_Q15785_74_DCTSALALVPFSIKPLLR (UniProt Q15785) | 0.0905
TOPBP1_Q92547_238_MNECTHLIVQEPK (UniProt Q92547) | -0.0352

Taken from the listing for reference:
Target | probe-labelled cysteine peptide fold change
TOMM40_O96008_76_TPGAATASASGAAEDGACGCLPNPGTFEECHRK (UniProt O96008) | -0.405
TNPO2_O14787_375_CSAAALDVLANVFR (UniProt O14787) | 0.208

More entries:

Target | probe-labelled cysteine peptide fold change
TMEM248_Q9NWD8_305_QSNPEFCPEK (UniProt Q9NWD8) | -0.205
TOMM70_O94826_588_SEMEMAHLYSLCDAAHAQTEVAK (UniProt O94826) | -0.0399
TONSL_Q96HA7_972_YYQTCGLLPR (UniProt Q96HA7) | 0.0896
TOP3B_O95985_58_MTSVCGHVMTLDFLGK (UniProt O95985) | 0.0443
TONSL_Q96HA7_1248_EGCALAHLTLSANHLGDK (UniProt Q96HA7) | 0.0642
TNPO1_Q92973_164_ICEDSAEILDSDVLDRPLNIMIPK (UniProt Q92973) | -0.0145
TNPO1_Q92973_683_SNILTLMYQCMQDK (UniProt Q92973) | 0.0805
TOP2B_Q02880_237_HFDGEDYTCITFQPDLSK (UniProt Q02880) | 0.0628
TLN1_Q9Y490_956_ASAGPQPLLVQSCK (UniProt Q9Y490) | -0.0509
TOP1_P11387_504_EEGETADTVGCCSLR (UniProt P11387) | 0.0427
TOP2A_P11388_300_WEVCLTMSEK (UniProt P11388) | 0.203
TOPORS_Q9NS56_49_HRPSFLGCR (UniProt Q9NS56) | -0.298
TNS3_Q68CZ2_1381_HYPVNSVIFCALDPQDRK (UniProt Q68CZ2) | -0.0299
TOP1_P11387_504+505_EEGETADTVGCCSLR (UniProt P11387) | -0.0145
TNPO1_Q92973_103_SECLNNIGDSSPLIR (UniProt Q92973) | -0.00794
TOPORS_Q9NS56_550_GHCDSSTR (UniProt Q9NS56) | 0.261
TOP1_P11387_341_EYGFCIMDNHK (UniProt P11387) | -0.205
